Measurements taken from US20260217692A1 (Ascentage Pharma (Suzhou) Co., Ltd., priority 2023, published 2026).
Counter-ions that a name gives are not always drawn. Further values from the same series stand in other lists.

How the values were obtained:
Type in all cases: physicochemical
[1] = Polymorph screening test, suspension method (crystal form by XRPD after stirring in solvent); settings: suspension method, 40° C., 3 days
Protocol: (or 50° C.) for 3 days in the dark and centrifuged to remove the supernatant; the resulting precipitate was dried under vacuum (25° C., −0.1 MPa); and the resulting solid was collected and subjected to the XRPD test. The results are as follows:
(or 50° C./80° C.) for 3 days in the dark and centrifuged to remove the supernatant; and the resulting precipitate was dried under vacuum (25° C., −0.1 MPa).
(or 50° C.) for 3 days in the dark and centrifuged to remove the supernatant; and the resulting precipitate was dried under vacuum (25° C., −0.1 MPa).

[2] = Polymorph screening test, volatilization method (crystal form by XRPD); settings: slow volatilization at room temperature
Source text: (§1) The results are as follows:
A total of 15 slow volatilization tests were set up using different solvent systems. […] The resulting solid was collected and subjected to the XRPD test.
A total of 10 slow volatilization tests were set up using different solvent systems. […] The resulting solid was collected and subjected to the XRPD test.
A total of 3 slow volatilization tests were set up using different solvent systems. […] The resulting solid was collected and subjected to the XRPD test.

[3] = Polymorph screening test, poor solvent / anti-solvent method (crystal form by XRPD); settings: anti-solvent method, good solvent DMSO, stirred 5 days
Source text: as §1

- Crystal form (XRPD) ([1]; 1,4-Dioxane): Crystal form B
- Crystal form (XRPD) ([1]; Acetone/water (1:2)): Crystal form B
- Crystal form (XRPD) ([1]; Acetone): Crystal form B
- Crystal form (XRPD) ([1]; Acetonitrile/water (1:1)): Crystal form B
- Crystal form (XRPD) ([1]; Acetonitrile): Crystal form B
- Crystal form (XRPD) ([1]; Dichloromethane): Crystal form B
- Crystal form (XRPD) ([1]; Ethanol): Crystal form B
- Crystal form (XRPD) ([1]; Ethyl acetate): Crystal form B
- Crystal form (XRPD) ([1]; Methanol/water (3:1)): Crystal form B
- Crystal form (XRPD) ([1]; Methanol): Crystal form B
- Crystal form (XRPD) ([1]; Tetrahydrofuran): Crystal form B
- Crystal form (XRPD) ([1]; Water): Crystal form B
- Crystal form (XRPD) ([1]; n-Heptane): Crystal form B
- Crystal form (XRPD) ([2]; DCM): No solid sample was obtained
- Crystal form (XRPD) ([2]; DCM/MeOH(1:1, v/v)): Crystal form B
- Crystal form (XRPD) ([2]; DCM/acetone (1:1, v/v)): No solid sample was obtained
- Crystal form (XRPD) ([3]; poor solvent Water): Crystal form B
- Crystal form (XRPD) ([3]; poor solvent n-Heptane): No solid sample was obtained
Structure (SMILES): Cc1cc(Nc2ncc(Cl)c(Nc3ccccc3S(=O)(=O)C(C)C)n2)c(OC(C)C)cc1C1=CCN(C2CCOCC2)CC1 [one equivalent of citrate crystal form B]
